PubChem BioAssay AID504791 – Drosophila RNAi Screening Center, 2011
Test: 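Genes whose knock-down strengthens or weakens small-RNA reporter silencing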 (primary screen). System: Drosophila S2-derived reporter cells. Knock-down reagent: long dsRNA against Drosophila genes, about 150-250 ng dsRNA per well (siRNA assay); about 80-120 ng (miRNA assay). Duration: about 5 days (siRNA assay); about 4 days (miRNA assay). Challenge: copper sulfate induction of reporters: 25 µM (siRNA assay); 200 mM stated (miRNA assay), 1-2 days before reading. Measurement: 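Per-well ratio of Renilla over firefly light, expressed relative to that plate's average ratio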. Hit rule: 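a well was a first-pass pick when its plate-scaled ratio rose above 1.5 (siRNA assay) or 1.6 (miRNA assay), or dropped below 0.6; a gene counted only if two separate dsRNAs agreed on retest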.
In all, the deposit lists about 23,000 reagents; below is a random part of those that have a named target and a result. Of all reagents, 199 (0.86%) got an active call. 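Plate-scaled ratios behind the calls are not deposited; printed light signals are raw; many rows marked increased or decreased are still called inactive.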 Unmarked entries are inactive. The numbers tell different reagents against one gene apart. A plus sign joins genes that one reagent is predicted to hit. Not given: the direction of the score.

| gene knocked down | reagent no. | stable siRNA reporter change | miRNA reporter change | stable assay Renilla, run 1 (luminescence) | stable assay firefly, run 1 (luminescence) |
| --- | --- | --- | --- | --- | --- |
| Dscam1 (Down syndrome cell adhesion molecule 1) | 1 | – | – | 5459 | 4.49e5 |
| Dscam1 (Down syndrome cell adhesion molecule 1) | 2 | – | – | 4000 | 3.59e5 |
| Dscam1 (Down syndrome cell adhesion molecule 1) | 3 | – | – | 7201 | 3.43e5 |
| Dscam1 (Down syndrome cell adhesion molecule 1) | 4 | – | – | 9010 | 4.38e5 |
| Dscam1 (Down syndrome cell adhesion molecule 1) | 5 | – | – | 8951 | 6.79e5 |
| Sry-alpha (Serendipity alpha) | 1 | – | – | 4615 | 3.24e5 |
| BuGZ (Bub3 interacting GLEBS and Zinc finger domain protein) | 1 | – | – | 1.91e5 | 1.58e6 |
| BuGZ (Bub3 interacting GLEBS and Zinc finger domain protein) | 2 | – | – | 6596 | 4.87e5 |
| lva (lava lamp) | 1 | – | – | 7019 | 4.74e5 |
| ave (aveugle) | 1 | – | – | 6562 | 4.58e5 |
| ave (aveugle) | 2 | – | reporter ratio lowered past the hit cutoff | – | – |
| Nup98-96 (Nucleoporin 98-96kD) | 1 | – | – | 7932 | 3.30e5 |
| Nup98-96 (Nucleoporin 98-96kD) | 2 | – | – | 7679 | 3.22e5 |
| Tbca (Tubulin binding cofactor A) | 1 | – | – | 7374 | 4.40e5 |
| CG15456 | 1 | – | – | 6298 | 4.48e5 |
| Eaf6 (Esa1-associated factor 6) | 1 | – | – | 6094 | 3.93e5 |
| fig (fos intronic gene) | 1 | – | – | 5007 | 3.53e5 |
| Dark (Death-associated APAF1-related killer) | 1 | – | – | 10625 | 3.96e5 |
| CG9044 | 1 | – | – | 54747 | 2.34e5 |
| Mob3 (MOB kinase activator 3) | 1 | – | – | 8607 | 7.16e5 |
| Npc2b (Niemann-Pick type C-2b) | 1 | – | – | 7034 | 2.89e5 |
| Rpn12R (Regulatory particle non-ATPase 12-related) | 1 | – | – | 7563 | 4.73e5 |
| Lam (Lamin) | 1 | – | – | 6859 | 5.04e5 |
| CG14427 | 1 | – | – | 5932 | 3.70e5 |
| dpr16 (defective proboscis extension response 16) | 1 | – | – | 6176 | 4.58e5 |
| dpr16 (defective proboscis extension response 16) | 2 | – | – | 4468 | 3.92e5 |
| Mat1 (Menage a trois 1) | 1 | – | – | 5887 | 3.51e5 |
| Or22a (Odorant receptor 22a) | 1 | – | – | 7047 | 4.48e5 |
| SREBP (Sterol regulatory element binding protein) | 1 | reporter ratio raised past the hit cutoff (active) | – | 5295 | 1.84e5 |
| CG8677 + CG31626 | 1 | – | – | 5883 | 5.29e5 |
| Nup93-1 (Nucleoporin 93kD-1) | 1 | – | – | 9022 | 4.28e5 |
| CG3610 | 1 | – | – | 6800 | 3.44e5 |
| Sk2 (Sphingosine kinase 2) | 1 | – | – | 7179 | 5.53e5 |
| Prosbeta5R2 (Proteasome beta5 subunit-related 2) | 1 | – | – | 5539 | 3.28e5 |
| CG11414 | 1 | – | – | 1.34e5 | 1.43e6 |
| LRR (Leucine-rich repeat) | 1 | – | – | 6343 | 3.40e5 |
| CG42336 | 1 | – | – | 6283 | 3.61e5 |
| CG42336 | 2 | – | – | 6758 | 4.01e5 |
| CG42336 | 3 | – | – | 6220 | 4.72e5 |
| CG3032 | 1 | – | – | 5672 | 2.84e5 |
| ball (ballchen) | 1 | – | – | 8154 | 4.13e5 |
| CG14676 | 1 | – | – | 6231 | 3.49e5 |
| CG10126 | 1 | – | – | 8354 | 4.07e5 |
| su(r) (suppressor of rudimentary) | 1 | – | – | 7730 | 4.17e5 |
| CG13314 | 1 | – | – | 5895 | 3.77e5 |
| TBPH (TAR DNA-binding protein-43 homolog) | 1 | – | – | 98629 | 8.80e5 |
| CG33159 | 1 | – | – | 4788 | 4.49e5 |
| CG13563 | 1 | – | – | 9183 | 5.87e5 |
| Cht8 (Chitinase 8) | 1 | – | – | 6248 | 5.55e5 |
| CG7333 | 1 | – | reporter ratio raised past the hit cutoff | 8178 | 4.66e5 |
| l(2)34Fc (lethal (2) 34Fc) | 1 | – | – | 7584 | 3.22e5 |
| yellow-b | 1 | – | – | 7970 | 1.67e6 |
| Obp59a (Odorant-binding protein 59a) | 1 | – | – | 6195 | 3.65e5 |
| HDAC1 (Histone deacetylase 1) | 1 | – | – | 6444 | 3.33e5 |
| cal1 (chromosome alignment defect 1) | 1 | – | – | 8734 | 4.00e5 |
| CG1902 | 1 | – | – | 7039 | 3.84e5 |
| CG31815 | 1 | – | – | 5032 | 4.12e5 |
| CG7448 (retired record) | 1 | – | – | 8168 | 3.48e5 |
| CG7448 (retired record) | 2 | – | – | 6415 | 5.77e5 |
| P32 | 1 | – | reporter ratio raised past the hit cutoff | 8931 | 2.95e5 |
| CG13676 | 1 | – | – | 6708 | 6.01e5 |
| Orct2 (Organic cation transporter 2) | 1 | – | – | 9055 | 3.43e5 |
| CG15708 | 1 | – | – | 6636 | 3.52e5 |
| Crtc (CREB-regulated transcription coactivator) | 1 | reporter ratio raised past the hit cutoff | – | 7006 | 2.28e5 |
| Crtc (CREB-regulated transcription coactivator) | 2 | – | – | 4211 | 2.71e5 |
| Fer1 (48 related 1) | 1 | – | – | 7278 | 6.39e5 |
| Fer1 (48 related 1) | 2 | – | – | 6294 | 4.42e5 |
| SF2 (Splicing factor 2) | 1 | – | – | 6666 | 3.36e5 |
| RpL22-like (Ribosomal protein L22-like) | 1 | – | – | 6299 | 4.78e5 |
| CG31819 | 1 | – | – | 6327 | 3.48e5 |
| CG33230 | 1 | – | – | 12196 | 5.90e5 |
| CG32679 | 1 | – | – | 5867 | 4.52e5 |
| Bcat (Branched chain amino acid transaminase) | 1 | – | – | 4731 | 3.51e5 |
| pasi1 (pasiflora 1) | 1 | – | – | 4375 | 3.10e5 |
| pasi1 (pasiflora 1) | 2 | – | – | 8938 | 6.90e5 |
| slim (scruin like at the midline) | 1 | – | – | 9091 | 3.30e5 |
| amrt (amaretto) | 1 | – | – | 5180 | 4.95e5 |
| Wnt10 (Wnt oncogene analog 10) | 1 | – | – | 5731 | 5.30e5 |
| Wnt10 (Wnt oncogene analog 10) | 2 | – | – | 8027 | 4.27e5 |
| Rbp4 (RNA-binding protein 4) | 1 | – | – | 7218 | 3.91e5 |
| IPIP (Inositol phosphatase interacting protein) | 1 | – | – | 1.15e5 | 3.52e5 |
| tap (target of Poxn) | 1 | – | – | 6471 | 3.69e5 |
| sNPF (short neuropeptide F precursor) | 1 | – | – | 7935 | 3.48e5 |

Copied from the listing (8 entries):
| gene knocked down | reagent no. | stable siRNA reporter change | miRNA reporter change | stable assay Renilla, run 1 (luminescence) | stable assay firefly, run 1 (luminescence) |
| --- | --- | --- | --- | --- | --- |
| CG3032 | 1 | – | – | 5672 | 2.84e5 |
| ball (ballchen) | 1 | – | – | 8154 | 4.13e5 |
| CG14676 | 1 | – | – | 6231 | 3.49e5 |
| CG10126 | 1 | – | – | 8354 | 4.07e5 |
| su(r) (suppressor of rudimentary) | 1 | – | – | 7730 | 4.17e5 |
| CG13314 | 1 | – | – | 5895 | 3.77e5 |
| TBPH (TAR DNA-binding protein-43 homolog) | 1 | – | – | 98629 | 8.80e5 |
| CG33159 | 1 | – | – | 4788 | 4.49e5 |
